Changes are numbered by the printed parent chain. No constants are given. Whether binding was seen depends on the method and setting. Binding seen in cells or lysates may run through a third protein. Some entries that bind do so weakly or less than the wild type.
Legend:
Test in all cases: pull-down
[1] = biological target: T1, Biotinylated HsRAD9 pS387 peptide F-4 (human)
T1 sequence (peptide, phosphoserine at 387; biotin (position not stated)): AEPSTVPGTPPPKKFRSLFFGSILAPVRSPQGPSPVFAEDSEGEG

By UniProt entry, the sequences of proteins in these tests, tags left out. Residues count along the entry.
UniProt Q92547, residues 1-360: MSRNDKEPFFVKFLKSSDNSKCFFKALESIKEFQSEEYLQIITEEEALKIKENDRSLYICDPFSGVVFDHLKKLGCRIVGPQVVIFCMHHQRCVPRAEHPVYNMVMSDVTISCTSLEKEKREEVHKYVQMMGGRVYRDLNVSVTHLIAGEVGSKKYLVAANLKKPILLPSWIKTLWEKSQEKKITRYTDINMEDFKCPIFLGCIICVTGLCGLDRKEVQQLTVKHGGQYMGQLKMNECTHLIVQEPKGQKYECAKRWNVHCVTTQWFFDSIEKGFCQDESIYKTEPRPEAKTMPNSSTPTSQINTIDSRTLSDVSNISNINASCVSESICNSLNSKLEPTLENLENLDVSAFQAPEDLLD

[2] = biological target: T2, Biotinylated HsRAD9 pS387 peptide I-4 (human)
T2 sequence (peptide, phosphoserine at 387; biotin (position not stated)): T1 sequence (peptide, phosphoserine at 387; biotin (position not stated)) with F37I

[3] = biological target: T3, Biotinylated HsRAD9 pS387 peptide Q-5 (human)
T3 sequence (peptide, phosphoserine at 387; biotin (position not stated)): T1 sequence (peptide, phosphoserine at 387; biotin (position not stated)) with V36Q, F37L

[4] = biological target: T4, Biotinylated HsRAD9 pS387 peptide S-5 (human)
T4 sequence (peptide, phosphoserine at 387; biotin (position not stated)): T1 sequence (peptide, phosphoserine at 387; biotin (position not stated)) with V36S, F37L

[5] = biological target: T5, Biotinylated HsRAD9 pS387 peptide V-3 (human)
T5 sequence (peptide, phosphoserine at 387; biotin (position not stated)): T1 sequence (peptide, phosphoserine at 387; biotin (position not stated)) with F37L, A38V

[6] = biological target: T6, Biotinylated HsRAD9 peptide pS387 (347-391) (human)
T6 sequence (peptide, phosphoserine at 387; biotin (position not stated)): T1 sequence (peptide, phosphoserine at 387; biotin (position not stated)) with F37L

Measured: binding

N-Myc6-TEV2-hTOPBP1-1-360 (from UniProt Q92547 1-360) (domain or fragment)
binds: all assays above
